Results from the supplement of paper PMC4749390.
Counter-ions that a name gives are not always drawn. The list shows a part of the results. Repeats in this data set agree poorly, so a single value says little.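 JEG3 cells stably carry tetracycline-induced wild-type human LRH-1, a heavily sumoylated nuclear receptor. APOC3 and MUC1 are SUMO-sensitive transcripts, raised by SUMO-less LRH-1 or UBC9 knockdown, measured by RT-qPCR against TBP and DMSO controls. A robust Z-score above +2 or below -2 marked a primary hit before toxicity and TBP filtering.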

system: JEG3 expressing hLRH-1; experiment: MUC1 transcript change (ddCt vs TBP and DMSO), Z-score over library; higher = higher MUC1 expression; conditions: 10 µM; time (hr): 24

Compound	MUC1 transcript change (Z-score)
C#C[C@]1(O)CCC2C3CCC4=CC(=O)CC[C@@H]4C3CCC21CC (some centres undefined) [norgestrel]	-0.382
Cc1cc(CC(C)CC(C)(C)C)n(O)c(=O)c1.NCCO (centres undefined) [piroctone olamine]	2.48
Nc1ccc(S(=O)(=O)Nc2cnc3ccccc3n2)cc1 [sulfaquinoxaline sodium]	0.1
OC[C@H]1O[C@H](O[C@]2(CCl)O[C@H](CCl)[C@@H](O)[C@@H]2O)[C@H](O)[C@@H](O)[C@H]1Cl [sucralose]	0.0596
CN(C)CC[C@@H](c1ccc(Cl)cc1)c1ccccn1 [dexchlorpheniramine maleate]	0.774
C=Cc1c(C)c2[n]3c1C=C1C(C)=C(CC)C4=[N+]1[Cu]31[n]3c(c(C)c(C(=O)O)c3=C(CC(=O)O)C3=[N+]1C(=C2)C(C)C3CCC(=O)O)=C4 (centres undefined) [chlorophyllide cu complex na salt]	0.679
Nc1nc2ccc(OC(F)(F)F)cc2s1 [Riluzole]	0.179
CN(C)N=Nc1[nH]cnc1C(N)=O [dacarbazine]	-0.156
O=C(O)c1ccccc1Nc1cccc(C(F)(F)F)c1 [flufenamic acid]	-0.742
Clc1ccc(CCC(Cn2ccnc2)Sc2c(Cl)cccc2Cl)cc1 (centres undefined) [butoconazole]	1.13
Cc1ccc(-c2cc(C(F)(F)F)nn2-c2ccc(S(N)(=O)=O)cc2)cc1 [celecoxib]	0.329
C[C@H]1OC(n2cc(F)c(=O)[nH]c2=O)C(O)[C@@H]1O (some centres undefined) [5-fluoro-5'-deoxyuridine]	0.632
COc1ccc2c(c1OC)C(=O)O[C@@H]2[C@H]1c2c(cc3c(c2OC)OCO3)CCN1C [noscapine hydrochloride]	0.797
CCOC(=O)O[C@]1(C(=O)COC(=O)CC)CC[C@H]2[C@@H]3CCC4=CC(=O)C=C[C@]4(C)[C@H]3[C@@H](O)C[C@@]21C [prednicarbate]	-0.685
CNNCc1ccc(C(=O)NC(C)C)cc1 [procarbazine hydrochloride]	-0.819
CC(=O)O[C@H]1CC2CCC3C(CC[C@@]4(C)C3C[C@H]([N+]3(C)CCCCC3)[C@@H]4OC(C)=O)[C@@]2(C)C[C@@H]1N1CCCCC1 (some centres undefined) [vecuronium bromide]	0.207
CO/N=C(\C(=O)N[C@@H]1C(=O)N2C(C(=O)O)=C(CSc3nnnn3C)CS[C@H]12)c1csc(N)n1 [cefmenoxime hydrochloride]	-0.0117

Pulled one by one from above, two records:
Compound	MUC1 transcript change (Z-score)
CN(C)N=Nc1[nH]cnc1C(N)=O [dacarbazine]	-0.156
O=C(O)c1ccccc1Nc1cccc(C(F)(F)F)c1 [flufenamic acid]	-0.742

(cont.)

Compound	MUC1 transcript change (Z-score)
C[C@H]1O[C@@H](O[C@H]2[C@@H](O)C[C@H](O[C@H]3[C@@H](O)C[C@H](O[C@H]4CC[C@@]5(C)[C@H](CC[C@@H]6[C@@H]5C[C@@H](O)[C@]5(C)[C@@H](C7=CC(=O)OC7)CC[C@]65O)C4)O[C@@H]3C)O[C@@H]2C)C[C@H](O)[C@@H]1O [digoxin]	-2.03
NCCCC[C@H](N[C@@H](CCc1ccccc1)C(=O)O)C(=O)N1CCC[C@H]1C(=O)O [lisinopril]	-0.187
CC1=C(C(=O)O)N2C(=O)[C@@H](NC(=O)[C@H](N)C3=CCC=CC3)C2SC1 (some centres undefined) [cephradine]	-1.24
NC[C@@H]1O[C@H](O[C@H]2[C@@H](O)[C@H](O[C@@H]3[C@@H](O)[C@H](N)C[C@H](N)[C@H]3O[C@H]3O[C@H](CO)[C@@H](O)[C@H](O)[C@H]3N)O[C@@H]2CO)[C@H](N)[C@@H](O)[C@@H]1O [paromomycin sulfate]	0.909
CC[C@]1(O)C[C@H]2CN(CCc3c([nH]c4ccccc34)[C@@](C(=O)OC)(c3cc4c(cc3OC)N(C=O)[C@H]3[C@@](O)(C(=O)OC)[C@H](OC(C)=O)[C@]5(CC)C=CCN6CC[C@]43[C@@H]65)C2)C1 [vincristine sulfate]	-1.01
COc1ccccc1OCC(O)CO (centres undefined) [guaifenesin]	-0.785
CO[C@@H]1[C@@H](OC(N)=O)[C@@H](O)[C@H](Oc2ccc3c(O)c(NC(=O)c4ccc(O)c(CC=C(C)C)c4)c(=O)oc3c2C)OC1(C)C [novobiocin sodium]	0.144
CC/C(=C(/CC)c1ccc(O)cc1)c1ccc(O)cc1 [diethylstilbestrol]	0.918
COc1cc(C(=O)NCc2ccc(OCCN(C)C)cc2)cc(OC)c1OC [trimethobenzamide hydrochloride]	0.53
CN(C)CCCN1c2ccccc2CCc2ccc(Cl)cc21 [Clomipramine hydrochloride]	-0.489
CN(N=O)C(=O)N[C@@H]1[C@@H](O)[C@H](O)[C@@H](CO)O[C@@H]1O [streptozosin]	0.676
Cc1cc(C(C)(C)C)c(O)c(C)c1CC1=NCCN1 [Oxymetazoline hydrochloride]	0.325
O=C(N[C@H](CO)[C@H](O)c1ccc([N+](=O)[O-])cc1)C(Cl)Cl [chloramphenicol]	-0.84
CC1C(OC(=O)C(O)c2ccccc2)CCC(C)(C)N1C (centres undefined) [eucatropine hydrochloride]	1.28
CN(C(=O)CN(CCO)CC(=O)N(C)C(C)(C)Cc1ccccc1)C(C)(C)Cc1ccccc1 [oxethazaine]	0.249
CCC[C@@H]1C[C@@H](C(=O)N[C@@H]([C@H]2O[C@H](SC)[C@H](O)[C@@H](O)[C@H]2O)[C@H](C)Cl)N(C)C1 [clindamycin hydrochloride]	-0.534
CCN(CC)CCNC(=O)c1cc(Cl)c(N)cc1OC [Metoclopramide hydrochloride]	0.813
